PubChem BioAssay AID743458 – Peter MacCallum Cancer Centre | 2014

Screen: 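Find knock-downs that make vorinostat-resistant colon cancer cells sensitive again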 (follow-up of hits)
System: human HCT116-VR colon cancer cells made resistant to vorinostat
Reagent: single siRNA or pool against human genes, 25 nM per single siRNA
Time to read-out: about 72 h after transfection, including 24 h of drug
Treatment: vorinostat, 2.5 µM final, for 24 h
Detection: 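Cell viability by fluorescence and apoptosis by caspase 3/7 luminescence under vorinostat, background-corrected, averaged across two plate copies and given as fold change versus mock transfection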
Scale: viability relative to mock: higher = more living cells than mock; caspase activity relative to mock: higher = more apoptosis than mock
Hit rule: 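Active means a reduced-viability or caspase-activation class, anything else inactive; classes could only be given to wells that looked healthy when left untreated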
The deposit covers about 1,800 reagents; below is a part drawn at random. Of all reagents, 732 (41%) got an active call. 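Calls are per siRNA reagent; a gene was deemed confirmed only if most of its four siRNAs scored.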

target | PubChem SID | viability relative to mock | caspase activity relative to mock | viability hit class | caspase hit class | activity call
UBC (GeneID 7316) | SID134282521 | 0.02 | 0.94 | no change | no change | inactive
UBC (GeneID 7316) | SID134282522 | 0.12 | 2.93 | no change | no change | inactive
UBC (GeneID 7316) | SID134282523 | 0.08 | 1.8 | no change | no change | inactive
UBC (GeneID 7316) | SID134282524 | 0.02 | 1.12 | no change | no change | inactive
RCE1 (GeneID 9986) | SID134235514 | 1.05 | 1.03 | no change | no change | inactive
RCE1 (GeneID 9986) | SID134235515 | 0.9 | 2.23 | no change | no change | inactive
RCE1 (GeneID 9986) | SID134235516 | 0.87 | 0.98 | no change | no change | inactive
RCE1 (GeneID 9986) | SID135611977 | 0.93 | 0.75 | no change | no change | inactive
ZBTB38 (GeneID 253461) | SID135616895 | 0.34 | 1.24 | reduced viability | no change | active
ZBTB38 (GeneID 253461) | SID135616896 | 1.01 | 1.42 | no change | no change | inactive
ZBTB38 (GeneID 253461) | SID135616897 | 1.05 | 2.34 | no change | no change | inactive
ZBTB38 (GeneID 253461) | SID135616898 | 0.68 | 1.68 | no change | no change | inactive
FOXL1 (GeneID 2300) | SID134245033 | 1.16 | 1.42 | no change | no change | inactive
FOXL1 (GeneID 2300) | SID134245034 | 0.65 | 4.32 | no change | caspase activation | active
FOXL1 (GeneID 2300) | SID134245035 | 0.86 | 1.96 | no change | no change | inactive
FOXL1 (GeneID 2300) | SID134245036 | 0.66 | 2.46 | no change | no change | inactive
PLA2G4A (GeneID 5321) | SID134248057 | 0.68 | 1.93 | no change | no change | inactive
PLA2G4A (GeneID 5321) | SID134248058 | 0.86 | 0.84 | no change | no change | inactive
PLA2G4A (GeneID 5321) | SID134248059 | 0.78 | 3.05 | no change | caspase activation | active
PLA2G4A (GeneID 5321) | SID134248060 | 0.73 | 2.28 | no change | no change | inactive
C2orf15 (GeneID 150590) | SID134267781 | 0.32 | 4.51 | reduced viability | caspase activation | active
C2orf15 (GeneID 150590) | SID134267782 | 1 | 1.45 | no change | no change | inactive
C2orf15 (GeneID 150590) | SID134267783 | 1.14 | 1.96 | no change | no change | inactive
C2orf15 (GeneID 150590) | SID134267784 | 0.62 | 2 | no change | no change | inactive
METRNL (GeneID 284207) | SID134291985 | 0.72 | 3.15 | no change | caspase activation | active
METRNL (GeneID 284207) | SID134291986 | 0.88 | 1.29 | no change | no change | inactive
METRNL (GeneID 284207) | SID134291987 | 0.38 | 3.62 | reduced viability | caspase activation | active
METRNL (GeneID 284207) | SID134291988 | 0.9 | 1.7 | no change | no change | inactive
ZNF354B (GeneID 117608) | SID134266817 | 0.58 | 3.33 | no change | caspase activation | active
ZNF354B (GeneID 117608) | SID134266818 | 0.72 | 2 | no change | no change | inactive
ZNF354B (GeneID 117608) | SID134266819 | 1.12 | 0.9 | no change | no change | inactive
ZNF354B (GeneID 117608) | SID134266820 | 0.42 | 2.66 | reduced viability | caspase activation | active
NUP85 (GeneID 79902) | SID134264237 | 1.05 | 1.66 | no change | no change | inactive
NUP85 (GeneID 79902) | SID134264238 | 1.08 | 1.16 | no change | no change | inactive
NUP85 (GeneID 79902) | SID134264240 | 0.88 | 2.89 | no change | caspase activation | active
NUP85 (GeneID 79902) | SID135614422 | 0.96 | 1.67 | no change | no change | inactive
THAP1 (GeneID 55145) | SID134289337 | 0.62 | 3.5 | no change | caspase activation | active
THAP1 (GeneID 55145) | SID134289338 | 0.76 | 1.83 | no change | no change | inactive
THAP1 (GeneID 55145) | SID134289340 | 0.79 | 2.33 | no change | no change | inactive
THAP1 (GeneID 55145) | SID135616520 | 0.55 | 4.48 | reduced viability | caspase activation | active

Hits (from the list above):
target | PubChem SID | viability relative to mock | caspase activity relative to mock | viability hit class | caspase hit class | activity call
ZBTB38 (GeneID 253461) | SID135616895 | 0.34 | 1.24 | reduced viability | no change | active
FOXL1 (GeneID 2300) | SID134245034 | 0.65 | 4.32 | no change | caspase activation | active
PLA2G4A (GeneID 5321) | SID134248059 | 0.78 | 3.05 | no change | caspase activation | active
C2orf15 (GeneID 150590) | SID134267781 | 0.32 | 4.51 | reduced viability | caspase activation | active
METRNL (GeneID 284207) | SID134291985 | 0.72 | 3.15 | no change | caspase activation | active
METRNL (GeneID 284207) | SID134291987 | 0.38 | 3.62 | reduced viability | caspase activation | active
ZNF354B (GeneID 117608) | SID134266817 | 0.58 | 3.33 | no change | caspase activation | active
ZNF354B (GeneID 117608) | SID134266820 | 0.42 | 2.66 | reduced viability | caspase activation | active
NUP85 (GeneID 79902) | SID134264240 | 0.88 | 2.89 | no change | caspase activation | active
THAP1 (GeneID 55145) | SID134289337 | 0.62 | 3.5 | no change | caspase activation | active
THAP1 (GeneID 55145) | SID135616520 | 0.55 | 4.48 | reduced viability | caspase activation | active
